# Screening data, single-dose tests

The values are deposited in ChEMBL (CHEMBL3988442, “University of Dundee, Small-Polar-MMV Screening Library” (2021)).

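Phenotypic screen: M. tuberculosis growth, glucose 7H9 medium, 3 days; the read-out is not stated. Compounds at 500 µM. Direction is inferred from retests: higher values go with more growth inhibition. Size under these conditions: about 18,000 compounds, about 1,400 of them at 50% or above in at least one test.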

Each number is a percent effect as filed.
How 0% and 100% were set is not recorded. Most values in the screen are low, and negative values occur.
This is an unselected part of the compounds tested.

| # | SMILES | percent effect |
|---|---|---|
| 1 | `Cc1ccc(C(=O)N(C)C(C)CN)cc1C` (centres undefined) | 10.24 |
| 2 | `CC(=O)Nc1nc(CC(=O)NCc2ccco2)cs1` | 16.35 |
| 3 | `CCc1ccc(S(=O)(=O)N(C)CC(N)=O)s1` | 56.93 |
| 4 | `CC(O)C1CCN(Cc2nc(N)nc(N(C)C)n2)CC1` (centres undefined) | 13.61 |
| 5 | `NC(=O)C(Sc1nnc[nH]1)c1ccc(Br)cc1` (centres undefined) | 50.27 |
| 6 | `CC(C)NC(=O)C1CC(=O)N(C(C)C)C1` (centres undefined) | 8.984 |
| 7 | `O=c1c2ccccc2nnn1CN1CCCSCC1` | -2.218 |
| 8 | `CC(C)CN1C(=O)C(N)c2ccccc21` (centres undefined) | 65.8 |
| 9 | `Cc1ccc(C)c(CS(=O)(=O)CC(=O)NCC2CC2)c1` | 45.58 |
| 10 | `CNC(=O)[C@@H](C)NCC=Cc1ccc(F)cc1` | 25.9 |
| 11 | `CN(C)c1ccc(N)nc1` | -393.6 |
| 12 | `CC(CO)NS(=O)(=O)Cc1ccc(F)c(Cl)c1` (centres undefined) | 17.73 |
| 13 | `N[C@H]1CCCc2cc(F)ccc21` | -338.4 |
| 14 | `Cc1cc(NC(=O)CN2CCN(C)CC2)n(C)n1` | 7.798 |
| 15 | `COc1ccc(C#N)cc1CN1CCNC(=O)CC1` | -11.75 |
| 16 | `Cn1cc(NC(=O)CCOc2ccc(F)cc2)cn1` | 38.04 |
| 17 | `CNC(=O)c1ccc(NS(=O)(=O)c2ccc(C)s2)cc1` | 42.3 |
| 18 | `O=C1CNC(=O)C2(CC2)N1` | 1.486 |
| 19 | `Cc1cc(C(=O)N[C@@H]2CCOC[C@H]2O)sc1C` | 0.2146 |
| 20 | `N#CCCNCC1CCOC1` (centres undefined) | 5.744 |
| 21 | `Cc1nc(C(C)C)ccc1CO` | 11.12 |
| 22 | `NC(=O)C1CCCN(CCCc2ccccc2)C1` (centres undefined) | 19.56 |
| 23 | `N#CC(Cc1c(F)cccc1F)C(N)=O` (centres undefined) | 30.59 |
| 24 | `CCOC(=O)C(C)Nc1ccc(CC(=O)N(C)C)cc1` (centres undefined) | 12.47 |
| 25 | `CN(Cc1cnc(N(C)C)nc1)Cc1ccccn1` | 21.15 |
| 26 | `CCNC(=O)C(C)(C)CN` | -1.131 |
| 27 | `CCn1cnnc1CCNC(=O)c1cnn(C(C)C)c1` | 5.935 |
| 28 | `OC(CN1CCn2ccnc2C1)c1ccc(Cl)cc1` (centres undefined) | 65.35 |
| 29 | `CC(=O)NCc1ccc(C(=O)Nc2ccccn2)cc1` | 1.312 |
| 30 | `O=S1(=O)CCC(NCc2csc(-c3ccccn3)n2)C1` (centres undefined) | 13.95 |
| 31 | `CC(NCC(C)(C)C(N)=O)c1ccc(S(C)(=O)=O)cc1` (centres undefined) | 2.324 |
| 32 | `CN(C(=O)c1ccoc1Br)c1cc(C#N)ccn1` | 5.379 |
| 33 | `CC(N)c1nnc(-c2ccccc2F)s1` (centres undefined) | 18.76 |
| 34 | `CCc1noc(Cn2cnc3ccccc3c2=O)n1` | 51.26 |
| 35 | `NCc1cccc2c1OCCO2` | 5.686 |
| 36 | `COc1cc(C(=O)n2ccc(C)n2)cc(OC)c1OC` | 31.28 |
| 37 | `CC1CN(C(=O)c2ccc(Cl)o2)CC(C)(C)O1` (centres undefined) | 26.76 |
| 38 | `CC(C)CSCCSc1nnc(N)[nH]1` | 51.6 |
| 39 | `CN(C)C(CNC(=O)c1nccnc1N)c1ccsc1` (centres undefined) | -3.909 |
| 40 | `N#CCCNC1CCOCC1` | -5.512 |
| 41 | `CSCC(=O)NCCc1nc(Cc2ccccc2)no1` | 24.11 |
| 42 | `Cc1ccc(F)cc1C(=O)N1CC(=O)NCC1(C)C` | 29.9 |
| 43 | `CCCS(=O)(=O)NCc1cccc(OCCN(C)C)c1` | 40.32 |
| 44 | `CN1C(=O)CCC1C(=O)N1CCc2ccc(F)cc21` (centres undefined) | 11.22 |
| 45 | `COCCNC(=O)c1cc2cc(C)ccc2n1C` | 77.85 |
| 46 | `O=C(CC1OCCc2ccccc21)N1CCSC1` (centres undefined) | 43.73 |
| 47 | `CCSc1ccccc1NC(=O)NCCNC(C)=O` | 26.65 |

Repeated from the top, 3 entries:

{"smiles": "Cc1ccc(C(=O)N(C)C(C)CN)cc1C", "stereo": "centres undefined", "percent effect": 10.24}
{"smiles": "CC(=O)Nc1nc(CC(=O)NCc2ccco2)cs1", "percent effect": 16.35}
{"smiles": "CCc1ccc(S(=O)(=O)N(C)CC(N)=O)s1", "percent effect": 56.93}